According to the supplement of paper PMC10849652:
The list shows a part of the results.

Sequences of proteins named here, by UniProt entry; tags and fusion partners are left off. A change or cut given only in a name is not applied to a line headed by its entry.
UniProt Q6IA86: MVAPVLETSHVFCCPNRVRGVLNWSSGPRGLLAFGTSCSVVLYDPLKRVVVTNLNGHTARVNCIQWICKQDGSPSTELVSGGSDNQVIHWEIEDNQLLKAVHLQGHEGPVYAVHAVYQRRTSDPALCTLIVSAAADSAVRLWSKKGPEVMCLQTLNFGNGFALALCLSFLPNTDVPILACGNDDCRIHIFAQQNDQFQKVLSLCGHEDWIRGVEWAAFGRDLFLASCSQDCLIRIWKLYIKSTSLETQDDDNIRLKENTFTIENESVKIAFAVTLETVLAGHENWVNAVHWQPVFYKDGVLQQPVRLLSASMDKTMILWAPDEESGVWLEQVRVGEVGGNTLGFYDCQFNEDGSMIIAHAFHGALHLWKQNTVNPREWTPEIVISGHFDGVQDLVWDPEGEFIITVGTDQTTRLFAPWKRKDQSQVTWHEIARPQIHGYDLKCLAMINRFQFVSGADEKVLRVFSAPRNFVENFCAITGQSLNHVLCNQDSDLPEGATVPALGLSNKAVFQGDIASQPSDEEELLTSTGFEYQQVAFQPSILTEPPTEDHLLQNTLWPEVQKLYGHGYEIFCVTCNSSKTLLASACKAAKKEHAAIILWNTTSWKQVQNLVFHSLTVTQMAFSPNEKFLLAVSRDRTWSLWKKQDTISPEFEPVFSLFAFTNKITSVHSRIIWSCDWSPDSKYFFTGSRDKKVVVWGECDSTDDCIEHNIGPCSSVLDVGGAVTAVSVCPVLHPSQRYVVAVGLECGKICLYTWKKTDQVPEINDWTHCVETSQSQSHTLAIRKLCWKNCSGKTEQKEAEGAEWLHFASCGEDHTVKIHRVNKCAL
UniProt Q32P44: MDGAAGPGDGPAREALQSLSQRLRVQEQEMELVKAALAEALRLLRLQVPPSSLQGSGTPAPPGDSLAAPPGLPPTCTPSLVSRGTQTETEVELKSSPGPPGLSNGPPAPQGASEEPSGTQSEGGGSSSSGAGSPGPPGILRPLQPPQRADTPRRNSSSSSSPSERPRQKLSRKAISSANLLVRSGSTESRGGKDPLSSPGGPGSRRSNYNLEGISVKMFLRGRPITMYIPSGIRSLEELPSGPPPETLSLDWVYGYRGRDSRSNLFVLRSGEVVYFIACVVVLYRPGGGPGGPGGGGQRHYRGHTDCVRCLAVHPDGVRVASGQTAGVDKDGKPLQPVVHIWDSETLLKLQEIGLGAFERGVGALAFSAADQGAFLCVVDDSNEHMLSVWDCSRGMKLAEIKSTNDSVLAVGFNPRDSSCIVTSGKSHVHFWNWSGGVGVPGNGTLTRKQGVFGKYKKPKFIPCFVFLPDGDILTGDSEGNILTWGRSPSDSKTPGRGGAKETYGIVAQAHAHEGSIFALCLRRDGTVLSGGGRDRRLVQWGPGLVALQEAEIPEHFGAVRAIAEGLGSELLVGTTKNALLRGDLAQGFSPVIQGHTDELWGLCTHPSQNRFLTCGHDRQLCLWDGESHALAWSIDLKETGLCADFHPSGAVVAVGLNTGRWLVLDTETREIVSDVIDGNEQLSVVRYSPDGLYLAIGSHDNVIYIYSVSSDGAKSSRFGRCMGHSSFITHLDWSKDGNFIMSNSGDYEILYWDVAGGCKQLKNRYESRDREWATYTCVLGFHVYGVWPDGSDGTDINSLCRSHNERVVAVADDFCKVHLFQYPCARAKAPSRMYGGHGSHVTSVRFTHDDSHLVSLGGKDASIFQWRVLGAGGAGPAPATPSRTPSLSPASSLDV
UniProt Q8NFI3: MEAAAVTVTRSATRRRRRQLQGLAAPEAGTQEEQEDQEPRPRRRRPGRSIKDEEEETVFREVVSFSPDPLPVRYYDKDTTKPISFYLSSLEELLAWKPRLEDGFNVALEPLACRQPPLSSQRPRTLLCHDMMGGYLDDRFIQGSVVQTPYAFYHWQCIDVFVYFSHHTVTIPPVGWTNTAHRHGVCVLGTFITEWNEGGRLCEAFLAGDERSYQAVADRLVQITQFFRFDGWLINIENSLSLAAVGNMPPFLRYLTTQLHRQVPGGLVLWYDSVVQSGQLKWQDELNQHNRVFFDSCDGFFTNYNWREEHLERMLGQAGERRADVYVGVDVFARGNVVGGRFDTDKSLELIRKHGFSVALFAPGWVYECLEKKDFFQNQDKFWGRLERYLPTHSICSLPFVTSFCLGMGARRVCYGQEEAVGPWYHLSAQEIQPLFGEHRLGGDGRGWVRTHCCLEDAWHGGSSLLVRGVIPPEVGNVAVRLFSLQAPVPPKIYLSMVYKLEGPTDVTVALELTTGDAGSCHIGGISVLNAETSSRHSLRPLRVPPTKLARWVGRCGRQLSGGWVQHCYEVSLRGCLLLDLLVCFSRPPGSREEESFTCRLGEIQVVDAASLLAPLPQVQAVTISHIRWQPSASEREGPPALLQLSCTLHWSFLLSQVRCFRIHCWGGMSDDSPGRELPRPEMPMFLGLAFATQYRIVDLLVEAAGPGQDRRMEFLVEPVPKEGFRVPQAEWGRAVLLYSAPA
UniProt O60841: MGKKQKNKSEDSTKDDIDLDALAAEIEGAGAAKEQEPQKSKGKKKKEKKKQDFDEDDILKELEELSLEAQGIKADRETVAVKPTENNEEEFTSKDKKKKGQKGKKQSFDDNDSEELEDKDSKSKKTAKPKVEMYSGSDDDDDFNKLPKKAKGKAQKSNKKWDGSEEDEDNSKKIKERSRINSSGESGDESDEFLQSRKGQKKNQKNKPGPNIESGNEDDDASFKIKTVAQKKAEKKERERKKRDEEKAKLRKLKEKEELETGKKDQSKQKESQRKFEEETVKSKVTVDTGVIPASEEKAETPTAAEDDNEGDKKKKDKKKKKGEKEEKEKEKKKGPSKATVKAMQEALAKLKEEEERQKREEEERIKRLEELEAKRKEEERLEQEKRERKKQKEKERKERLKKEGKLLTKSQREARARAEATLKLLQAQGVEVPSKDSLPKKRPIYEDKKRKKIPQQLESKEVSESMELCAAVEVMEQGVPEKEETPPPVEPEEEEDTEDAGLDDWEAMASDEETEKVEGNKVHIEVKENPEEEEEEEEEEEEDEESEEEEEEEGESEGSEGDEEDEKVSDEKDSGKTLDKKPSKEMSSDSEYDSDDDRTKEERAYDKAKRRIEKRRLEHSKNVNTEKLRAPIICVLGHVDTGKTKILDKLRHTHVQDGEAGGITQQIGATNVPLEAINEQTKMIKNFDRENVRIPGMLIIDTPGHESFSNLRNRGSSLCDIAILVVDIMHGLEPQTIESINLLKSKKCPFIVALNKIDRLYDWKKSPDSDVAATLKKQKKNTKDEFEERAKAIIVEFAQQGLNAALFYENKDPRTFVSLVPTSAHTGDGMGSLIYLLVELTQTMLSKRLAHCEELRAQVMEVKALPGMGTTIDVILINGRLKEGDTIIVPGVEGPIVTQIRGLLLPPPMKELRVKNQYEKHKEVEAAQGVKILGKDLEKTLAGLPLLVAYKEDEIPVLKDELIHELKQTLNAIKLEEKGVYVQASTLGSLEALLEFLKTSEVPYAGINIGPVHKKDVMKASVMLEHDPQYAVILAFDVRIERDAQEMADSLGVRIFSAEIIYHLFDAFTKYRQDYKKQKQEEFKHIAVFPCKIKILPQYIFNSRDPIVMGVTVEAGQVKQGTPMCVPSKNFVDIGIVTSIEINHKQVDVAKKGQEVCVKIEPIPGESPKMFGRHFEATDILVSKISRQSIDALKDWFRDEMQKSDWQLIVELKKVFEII
UniProt Q9NPA0: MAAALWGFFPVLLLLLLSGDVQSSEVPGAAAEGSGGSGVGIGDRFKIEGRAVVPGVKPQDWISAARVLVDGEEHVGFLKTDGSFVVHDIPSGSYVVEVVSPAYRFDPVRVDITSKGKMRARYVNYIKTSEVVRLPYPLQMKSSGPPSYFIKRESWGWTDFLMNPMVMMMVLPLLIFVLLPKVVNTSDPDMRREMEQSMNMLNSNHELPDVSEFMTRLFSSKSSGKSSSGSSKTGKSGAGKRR
UniProt P41214: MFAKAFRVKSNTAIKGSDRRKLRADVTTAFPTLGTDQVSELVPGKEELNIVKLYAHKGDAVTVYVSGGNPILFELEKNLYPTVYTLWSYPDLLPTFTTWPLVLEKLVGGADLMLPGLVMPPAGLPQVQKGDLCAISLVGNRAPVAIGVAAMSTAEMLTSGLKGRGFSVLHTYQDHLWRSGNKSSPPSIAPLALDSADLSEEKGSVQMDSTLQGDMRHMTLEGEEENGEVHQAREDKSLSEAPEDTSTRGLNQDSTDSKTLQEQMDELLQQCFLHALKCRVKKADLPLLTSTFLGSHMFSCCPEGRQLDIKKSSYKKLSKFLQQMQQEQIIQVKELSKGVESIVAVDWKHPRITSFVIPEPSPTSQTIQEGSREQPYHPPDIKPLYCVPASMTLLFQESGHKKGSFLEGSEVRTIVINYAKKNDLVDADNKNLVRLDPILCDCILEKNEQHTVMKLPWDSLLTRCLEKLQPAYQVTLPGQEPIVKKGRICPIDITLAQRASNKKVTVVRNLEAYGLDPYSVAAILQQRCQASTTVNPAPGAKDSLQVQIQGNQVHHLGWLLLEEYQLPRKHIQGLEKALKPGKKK
UniProt Q5UCC4: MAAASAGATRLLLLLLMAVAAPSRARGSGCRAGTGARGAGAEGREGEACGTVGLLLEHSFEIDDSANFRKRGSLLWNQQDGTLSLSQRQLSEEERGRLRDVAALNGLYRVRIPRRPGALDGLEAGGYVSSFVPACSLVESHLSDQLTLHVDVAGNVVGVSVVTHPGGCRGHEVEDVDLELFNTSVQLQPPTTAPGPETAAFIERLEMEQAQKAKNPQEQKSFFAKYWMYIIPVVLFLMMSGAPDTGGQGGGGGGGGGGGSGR
UniProt O43402: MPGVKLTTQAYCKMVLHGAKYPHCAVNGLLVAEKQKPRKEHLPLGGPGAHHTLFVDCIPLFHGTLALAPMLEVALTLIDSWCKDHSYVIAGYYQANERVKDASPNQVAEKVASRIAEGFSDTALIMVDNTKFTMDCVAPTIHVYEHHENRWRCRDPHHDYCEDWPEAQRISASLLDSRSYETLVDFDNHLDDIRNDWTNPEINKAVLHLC
UniProt P63241: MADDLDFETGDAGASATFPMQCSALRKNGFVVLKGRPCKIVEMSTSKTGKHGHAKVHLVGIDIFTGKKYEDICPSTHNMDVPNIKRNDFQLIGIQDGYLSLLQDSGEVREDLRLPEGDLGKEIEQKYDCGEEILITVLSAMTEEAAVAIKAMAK
UniProt Q99613, whole entry, looked up: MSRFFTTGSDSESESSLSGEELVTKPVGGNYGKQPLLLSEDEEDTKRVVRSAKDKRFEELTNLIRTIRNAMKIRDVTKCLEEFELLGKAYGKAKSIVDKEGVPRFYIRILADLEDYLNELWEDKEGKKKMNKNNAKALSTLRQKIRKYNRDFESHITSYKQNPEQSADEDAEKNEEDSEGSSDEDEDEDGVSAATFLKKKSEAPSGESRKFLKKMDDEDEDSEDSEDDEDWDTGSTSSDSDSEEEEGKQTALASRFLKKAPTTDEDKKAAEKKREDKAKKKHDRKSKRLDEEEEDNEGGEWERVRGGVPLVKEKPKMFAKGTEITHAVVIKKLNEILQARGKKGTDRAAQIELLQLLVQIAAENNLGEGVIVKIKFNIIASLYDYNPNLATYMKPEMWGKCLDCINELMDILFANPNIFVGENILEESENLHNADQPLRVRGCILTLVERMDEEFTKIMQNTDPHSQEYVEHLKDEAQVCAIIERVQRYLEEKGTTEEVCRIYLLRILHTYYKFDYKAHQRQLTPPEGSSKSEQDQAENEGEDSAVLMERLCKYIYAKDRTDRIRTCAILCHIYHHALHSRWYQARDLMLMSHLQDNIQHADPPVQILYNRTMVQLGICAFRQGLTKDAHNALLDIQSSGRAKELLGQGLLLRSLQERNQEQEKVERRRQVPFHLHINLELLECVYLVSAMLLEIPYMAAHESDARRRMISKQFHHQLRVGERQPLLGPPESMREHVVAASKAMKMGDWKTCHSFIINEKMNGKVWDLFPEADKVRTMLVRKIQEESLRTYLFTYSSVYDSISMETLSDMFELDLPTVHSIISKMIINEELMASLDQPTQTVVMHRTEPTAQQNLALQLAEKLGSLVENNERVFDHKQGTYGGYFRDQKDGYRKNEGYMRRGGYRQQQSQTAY
UniProt Q9H777: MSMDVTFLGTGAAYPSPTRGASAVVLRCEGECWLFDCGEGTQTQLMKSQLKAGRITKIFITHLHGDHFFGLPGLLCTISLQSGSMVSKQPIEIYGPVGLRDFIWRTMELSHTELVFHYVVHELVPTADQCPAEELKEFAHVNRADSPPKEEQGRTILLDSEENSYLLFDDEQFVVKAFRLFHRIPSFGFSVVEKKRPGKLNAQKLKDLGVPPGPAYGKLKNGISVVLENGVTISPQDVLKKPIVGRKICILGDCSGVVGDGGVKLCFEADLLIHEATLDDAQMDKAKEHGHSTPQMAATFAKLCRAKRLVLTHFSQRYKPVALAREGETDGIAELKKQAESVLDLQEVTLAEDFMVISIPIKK
UniProt Q9UKR5: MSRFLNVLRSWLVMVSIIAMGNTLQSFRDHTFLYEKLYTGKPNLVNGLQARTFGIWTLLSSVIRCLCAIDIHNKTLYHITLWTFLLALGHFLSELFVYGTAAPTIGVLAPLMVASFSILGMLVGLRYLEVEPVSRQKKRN

Experiments:
Assay in all cases: log2 fold change, soluble protein after heating vs DMSO (PISA); higher = thermal stabilisation; K562 lysate, 10 uM; active = over 0.2 and 3.5 SD of the protein, either way, in both replicates (recomputed)
[1] = compound: C1=CC=C(C=C1)[C@H](COC2=CC3=C(C=C2)NC(=O)N3)NC(=O)C4=CC=CN(C4=O)CC5=CC(=C(C=C5)F)F
In short: (§1)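 Following dounce homogenisation of K562 pellets in PBS pH 7.4 with 1 mM MgCl2, crude extract at 1 mg/mL protein was incubated for 30 min with 10 μM compound. Aliquots were then heated for 3 min over 48°C-58°C and pooled, NP-40 was added to 0.5% at 4°C, and soluble protein was recovered as the supernatant at 21,000xg for 90 min. Channel-sum-equalised TMTpro 16plex LC-MS/MS quantified this protein. Each value, from duplicates, is a log-two fold change in thermal stability relative to solvent controls.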

[2] = compound: CC1=C(SC2=C1C(=N[C@H](C3=NN=C(N32)C)CC(=O)N)C4=CC=C(C=C4)Cl)C
In short: as §1

[3] = compound: CC1=C2C(=CC=C1)N=C(N(C2=O)C3=CC=CC=C3C)CN4C=NC5=C(N=CN=C54)N
In short: as §1

[4] = compound: Cc1sc2c(c1C)C(c1ccc(Cl)cc1)=N[C@@H](CC(=O)OC(C)(C)C)c1nnc(C)n1-2
In short: as §1

[5] = compound: c1ccc([C@@H]2C[C@H]2NC2CCNCC2)cc1
In short: as §1

Measured: log2 fold change

EMD (UniProt P50402)
inactive: [1] 0.098 | [2] 0.006 | [3] 0.013 | [4] -0.008 | [5] -0.032

ELP2 isoform 6 (UniProt Q6IA86)
inactive: [1] 0.021 | [2] -0.009 | [3] 0.004 | [4] -0.013 | [5] 0

ELP5 isoform 4 (UniProt Q8TE02)
inactive: [1] 0.001 | [2] 0.041 | [3] 0.034 | [4] -0.021 | [5] -0.09

EIF4B (UniProt P23588)
inactive: [1] 0.026 | [2] 0.002 | [3] -0.002 | [4] -0.016 | [5] -0.038

EIF2AK1 (UniProt Q9BQI3)
inactive: [1] 0.006 | [2] -0.035 | [3] -0.007 | [4] -0.022 | [5] -0.041

EIF5A2 (UniProt Q9GZV4)
inactive: [1] 0.025 | [2] 0.01 | [3] 0.017 | [4] -0.108 | [5] -0.058

EP400P1 isoform 6 (UniProt Q6ZTU2)
inactive: [1] 0.065 | [2] -0.072 | [3] -0.03 | [4] 0.022 | [5] -0.128

ELOA (UniProt Q14241)
inactive: [1] 0.077 | [2] -0.021 | [3] -0.052 | [4] -0.039 | [5] -0.092

EML3 (UniProt Q32P44)
inactive: [1] 0.007 | [2] -0.037 | [3] -0.026 | [4] -0.025 | [5] 0.001

EPHX2 (UniProt P34913)
inactive: [1] 0.021 | [2] 0.006 | [3] 0 | [4] 0.119 | [5] -0.012

ERGIC3 isoform 3 (UniProt Q9Y282)
inactive: [1] -0.084 | [2] 0.036 | [3] -0.058 | [4] 0.062 | [5] 0.034

EIF4G3, A0A0U1RQK7
inactive: [1] -0.05 | [2] 0.01 | [3] 0.042 | [4] -0.008 | [5] 0.004

EIF3B isoform 2 (UniProt P55884)
inactive: [1] 0.007 | [2] 0 | [3] 0.009 | [4] -0.002 | [5] 0.014

EIF4A1 (UniProt P60842)
inactive: [1] 0.03 | [2] 0.046 | [3] -0.001 | [4] -0.022 | [5] 0.004

EP400 isoform 5 (UniProt Q96L91)
inactive: [1] -0.008 | [2] 0.024 | [3] -0.014 | [4] 0.06 | [5] 0.016

ENGASE (UniProt Q8NFI3)
inactive: [1] 0.042 | [2] 0.017 | [3] 0.038 | [4] 0.017 | [5] -0.023

EIF3A (UniProt Q14152)
inactive: [1] 0.013 | [2] 0.032 | [3] 0.033 | [4] -0.024 | [5] 0.024

EIF4G1 (UniProt Q04637)
inactive: [1] -0.032 | [2] -0.002 | [3] 0.002 | [4] 0.032 | [5] 0.018

ELMO1 (UniProt Q92556)
inactive: [1] -0.043 | [2] 0.133 | [3] 0.039 | [4] -0.104 | [5] 0.007

ERCC2 (UniProt P18074)
inactive: [1] -0.029 | [2] 0.03 | [3] 0.018 | [4] 0.017 | [5] 0.052

EIF5B (UniProt O60841)
inactive: [1] 0.001 | [2] -0.041 | [3] 0.005 | [4] 0 | [5] 0.001

ENO2 (UniProt P09104)
inactive: [1] 0.019 | [2] -0.122 | [3] 0.037 | [4] -0.009 | [5] -0.153

EPHX1 (UniProt P07099)
inactive: [1] -0.021 | [2] -0.015 | [3] -0.008 | [4] 0.022 | [5] -0.012

ELF2 (UniProt Q15723)
inactive: [1] -0.162 | [2] -0.074 | [3] 0.044 | [4] -0.005 | [5] 0.013

EMC7 (UniProt Q9NPA0)
inactive: [1] 0.01 | [2] 0.02 | [3] 0.024 | [4] 0.005 | [5] -0.141

EIF2D (UniProt P41214)
inactive: [1] -0.007 | [2] -0.012 | [3] 0.044 | [4] 0.003 | [5] 0.049

EMC10 (UniProt Q5UCC4)
inactive: [1] 0.004 | [2] 0.013 | [3] 0.041 | [4] -0.002 | [5] -0.09

EMC8 (UniProt O43402)
inactive: [1] -0.014 | [2] 0.037 | [3] -0.002 | [4] 0.019 | [5] 0.026

ERI3 (UniProt O43414)
inactive: [1] -0.022 | [2] -0.03 | [3] -0.023 | [4] -0.016 | [5] -0.085

EIF4A2 isoform 2 (UniProt Q14240)
inactive: [1] -0.009 | [2] -0.002 | [3] -0.021 | [4] 0 | [5] -0.017

ENO3 (UniProt P13929)
inactive: [1] -0.056 | [2] 0.049 | [3] -0.092 | [4] 0.249 | [5] -0.117

ERCC5 (UniProt P28715)
inactive: [1] 0.022 | [2] 0.027 | [3] -0.029 | [4] -0.031 | [5] -0.018

EIF4H (UniProt Q15056)
inactive: [1] 0.032 | [2] 0.021 | [3] -0.029 | [4] 0.019 | [5] -0.053

EIF4E isoform 2 (UniProt P06730)
inactive: [1] 0.038 | [2] 0.029 | [3] 0.009 | [4] 0.048 | [5] -0.031

EIF5A isoform 2 (UniProt P63241)
inactive: [1] 0.028 | [2] -0.011 | [3] -0.007 | [4] 0.01 | [5] 0.002

EPRS (UniProt P07814)
inactive: [1] -0.005 | [2] 0.002 | [3] 0.003 | [4] 0.043 | [5] 0.016

EIF2B2 (UniProt P49770)
inactive: [1] -0.005 | [2] -0.006 | [3] -0.003 | [4] 0.031 | [5] 0.016

EME1 isoform 2 (UniProt Q96AY2)
inactive: [1] 0.024 | [2] 0.045 | [3] 0.108 | [5] 0.193

ENO1 isoform 2 (UniProt P06733)
inactive: [1] 0.068 | [2] -0.145 | [3] 0.033 | [4] -0.062 | [5] -0.143

EPS15 (UniProt P42566)
inactive: [1] 0.025 | [2] 0.007 | [3] 0 | [4] 0.004 | [5] 0.011

EIF6 (UniProt P56537)
inactive: [1] 0.064 | [2] -0.051 | [3] 0.004 | [4] -0.007 | [5] -0.176

EIF3C (UniProt Q99613)
inactive: [1] -0.027 | [2] 0.015 | [3] 0.013 | [4] 0.005 | [5] 0.016

EIF4EBP1 (UniProt Q13541)
inactive: [1] -0.027 | [2] 0.028 | [3] -0.081 | [4] -0.032 | [5] 0.084

ELAC2 (UniProt Q9BQ52)
inactive: [1] 0.01 | [2] -0.011 | [3] 0.008 | [4] 0.023 | [5] -0.091

ERCC1 (UniProt P07992)
inactive: [1] 0.063 | [2] 0.001 | [3] 0.047 | [4] -0.017 | [5] -0.087

ERCC6 (UniProt Q03468)
inactive: [1] -0.093 | [2] 0.026 | [3] 0.088 | [4] -0.09 | [5] 0.014

EIF4ENIF1 isoform 3 (UniProt Q9NRA8)
inactive: [1] 0.007 | [2] -0.04 | [3] 0.075 | [4] 0.031 | [5] -0.041

Twelve consecutive records already listed, quoted:
EIF4E isoform 2 (UniProt P06730)
inactive: [1] 0.038 | [2] 0.029 | [3] 0.009 | [4] 0.048 | [5] -0.031

EIF5A isoform 2 (UniProt P63241)
inactive: [1] 0.028 | [2] -0.011 | [3] -0.007 | [4] 0.01 | [5] 0.002

EPRS (UniProt P07814)
inactive: [1] -0.005 | [2] 0.002 | [3] 0.003 | [4] 0.043 | [5] 0.016

EIF2B2 (UniProt P49770)
inactive: [1] -0.005 | [2] -0.006 | [3] -0.003 | [4] 0.031 | [5] 0.016

EME1 isoform 2 (UniProt Q96AY2)
inactive: [1] 0.024 | [2] 0.045 | [3] 0.108 | [5] 0.193

ENO1 isoform 2 (UniProt P06733)
inactive: [1] 0.068 | [2] -0.145 | [3] 0.033 | [4] -0.062 | [5] -0.143

EPS15 (UniProt P42566)
inactive: [1] 0.025 | [2] 0.007 | [3] 0 | [4] 0.004 | [5] 0.011

EIF6 (UniProt P56537)
inactive: [1] 0.064 | [2] -0.051 | [3] 0.004 | [4] -0.007 | [5] -0.176

EIF3C (UniProt Q99613)
inactive: [1] -0.027 | [2] 0.015 | [3] 0.013 | [4] 0.005 | [5] 0.016

EIF4EBP1 (UniProt Q13541)
inactive: [1] -0.027 | [2] 0.028 | [3] -0.081 | [4] -0.032 | [5] 0.084

ELAC2 (UniProt Q9BQ52)
inactive: [1] 0.01 | [2] -0.011 | [3] 0.008 | [4] 0.023 | [5] -0.091

ERCC1 (UniProt P07992)
inactive: [1] 0.063 | [2] 0.001 | [3] 0.047 | [4] -0.017 | [5] -0.087

More results.

ELAC1 (UniProt Q9H777)
inactive: [1] -0.07 | [2] -0.063 | [3] 0.096 | [5] 0.192

EPM2AIP1 (UniProt Q7L775)
inactive: [1] -0.023 | [2] -0.054 | [3] 0.029 | [4] -0.016 | [5] 0.04

EIF3G (UniProt K7ENA8)
inactive: [1] -0.067 | [2] 0.056 | [4] -0.194 | [5] 0.013

EIF4A1 (UniProt J3KS25)
inactive: [3] 0.012

ENTR1 (UniProt Q96C92)
inactive: [3] 0.017

EIF4E3 (UniProt Q8N5X7)
inactive: [3] 0.116 | [5] -0.079

ERG28 (UniProt Q9UKR5)
inactive: [1] 0.001 | [2] -0.053 | [4] -0.08 | [5] 0.277

EPB41L5 (UniProt Q9HCM4)
inactive: [1] -0.003 | [2] 0.09 | [5] 0.092
